The text below walks through data of publication PMC7468199.

Chains of the proteins cited; added tags and fusions are not shown.
UniProt A0A0H2ZM82: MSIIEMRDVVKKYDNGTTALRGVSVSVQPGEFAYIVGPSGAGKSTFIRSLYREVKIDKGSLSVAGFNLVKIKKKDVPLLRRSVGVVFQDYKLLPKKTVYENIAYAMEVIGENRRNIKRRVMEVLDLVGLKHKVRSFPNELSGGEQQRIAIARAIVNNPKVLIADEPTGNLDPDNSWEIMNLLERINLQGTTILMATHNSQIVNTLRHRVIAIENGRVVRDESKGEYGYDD

These are yes or no findings as the source states them, for the method shown.

The test deals with FtsE from Streptococcus pneumoniae (Streptococcus pneumoniae strain R6). Briefly: crystal structure; FtsE at 8 mg/ml with ADP (space groups P 1 and P 2_(1)); 0.15 M sodium acetate, 0.1 M Bis-Tris propane (pH 6.5), 16% PEG3350, 291 K; both purified.

Take “FtsE from Streptococcus pneumoniae (from UniProt A0A0H2ZM82 1-230) (enzyme)”: the binding result is recorded as “no binding (tested: 8 mg/ml)”.
